One molecule from patent US20080254026A1 can be followed below.

The chains behind the UniProt entries cited, without tags or fusion partners. Where a name states a change or a piece, a line headed by the entry shows the natural chain unless it says otherwise.
UniProt P25942: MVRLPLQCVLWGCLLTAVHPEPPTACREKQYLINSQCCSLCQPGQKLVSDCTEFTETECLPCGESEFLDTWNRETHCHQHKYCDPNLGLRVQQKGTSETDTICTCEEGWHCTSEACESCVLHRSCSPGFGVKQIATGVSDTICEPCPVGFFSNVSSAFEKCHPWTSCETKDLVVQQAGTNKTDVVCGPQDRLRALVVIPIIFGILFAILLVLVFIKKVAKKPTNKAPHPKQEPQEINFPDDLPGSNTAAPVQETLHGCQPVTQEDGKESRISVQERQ

These are yes or no findings as the source states them, for the method shown. Some entries that bind do so weakly or less than the wild type.

The target of the assay is Recombinant soluble CD40-his (human) (UniProt P25942). As to the kind of experiment: complex formed in solution for the Biacore competition study. Background: SPR reads the build-up and loss of mass on a sensor chip optically.

B1: CHIR-5.9 Fab (Fab, V domains shown)
VH: EVQLVQSGAEVKKPGESLKISCKGSGYSFTSYWIGWVRQMPGKGLEWMGIIYPGDSDTRYSPSFQGQVTISADKSISTAYLQWSSLKASDTAMYYCARGTAAGRDYYYYYGMDVWGQGTTVTVSS
VL: AIVMTQPPLSSPVTLGQPASISCRSSQSLVHSDGNTYLNWLQQRPGQPPRLLIYKFFRRLSGVPDRFSGSGAGTDFTLKISRVEAEDVGVYYCMQVTQFPHTFGQGTRLEIKR
For the molecule B1, the binding result is “binds”.
